# PubChem BioAssay AID1224826, NIAID, 2016
# Assay: 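Knock-downs that raise or lower Tnf reporter signal after endotoxin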 (primary screen)
# Cell system: RAW264.7 G9 macrophages from mouse bearing reporters for p65 (GFP) and the Tnf promoter (mCherry)
# Reagent: siRNA pool against mouse genes, 100 nM
# Time to read-out: 16 h of LPS stimulation, after 2 days of siRNA transfection
# Treatment: bacterial lipopolysaccharide (Salmonella minnesota R595), 10 ng/ml
# Detection: 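Nuclear mCherry signal of the Tnf promoter reporter measured by imaging after background removal, scaled to each plate median and turned into robust z-scores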
# Reading the numbers: Tnf reporter robust z-score: higher = stronger Tnf promoter reporter signal after LPS; Tnf reporter intensity: higher = stronger Tnf promoter reporter signal
# Hit rule: 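a well counts as active at a score of -1.3 or below (Tlr4 knock-down control median) or above 3 (raised signal); controls and wells holding fewer than 50 cells are excluded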
# Calls: active = Tnf reporter clearly lowered or raised; inactive = no clear change in Tnf reporter
# This is an unselected part of about 17,000 reagents. In the full data, about 1,110 (6.6%) were called active. 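Active means lowered or raised reporter signal; replicate intensities are raw and not normalised per plate.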 Unmarked entries are inactive. A reagent listed more than once was tested more than once; the source does not tell the runs apart.
gene,Tnf reporter robust z-score,fewer than 50 cells in well,"Tnf reporter intensity, replicate 1","Tnf reporter intensity, replicate 2"
Erg (ETS transcription factor),-0.45,enough cells in well,178,213
Or10ag52 (olfactory receptor family 10 subfamily AG member 52),-0.89,enough cells in well,128,108
Cdcp3 (CUB domain containing protein 3),0.57,enough cells in well,234,154
Glg1 (golgi apparatus protein 1),-0.44,enough cells in well,215,149
Mc2r (melanocortin 2 receptor),0.29,enough cells in well,219,353
Ccdc14 (coiled-coil domain containing 14),2.46,enough cells in well,493,223
"Myl12b (myosin, light chain 12B, regulatory)",-1.46 (active),enough cells in well,103,60.1
4930515G01Rik (RIKEN cDNA 4930515G01 gene),-0.93,enough cells in well,111,44.8
Vps13b (vacuolar protein sorting 13B),2.45,enough cells in well,173,347
Mprip (myosin phosphatase Rho interacting protein),-0.95,enough cells in well,105,117
Miga2 (mitoguardin 2),0.34,enough cells in well,191,169
4932414N04Rik (RIKEN cDNA 4932414N04 gene),,fewer than 50 cells per well; well left out of calls,161,33.3
Atp5mc1 (ATP synthase membrane subunit c locus 1),1.84,enough cells in well,276,259
Prps2 (phosphoribosyl pyrophosphate synthetase 2),-0.11,enough cells in well,168,174
Mmrn2 (multimerin 2),1.15,enough cells in well,258,178
"Nelfe (negative elongation factor complex member E, Rdbp)",1.93,enough cells in well,222,201
Fbxl7 (F-box and leucine-rich repeat protein 7),3.54 (active),enough cells in well,406,359
Cdc50b (cell division cycle 50 P4-ATPase accessory subunit B),-0.5,enough cells in well,164,141
Pgd (phosphogluconate dehydrogenase),1.66,enough cells in well,198,238
Or51f23 (olfactory receptor family 51 subfamily F member 23),,fewer than 50 cells per well; well left out of calls,55.4,81.5
Krtap4-2 (keratin associated protein 4-2),,fewer than 50 cells per well; well left out of calls,149,17.6
Psma3 (proteasome subunit alpha 3),3.97 (active),enough cells in well,150,299
"Raf1 (Raf1 proto-oncogene, serine/threonine kinase)",-0.93,enough cells in well,121,123
"Nlrp9a (NLR family, pyrin domain containing 9A)",-0.25,enough cells in well,234,194
"Ephx1 (epoxide hydrolase 1, microsomal)",1.54,enough cells in well,353,345
"Rab4a (RAB4A, member RAS oncogene family)",-0.08,enough cells in well,307,195
Cish (cytokine inducible SH2-containing protein),-0.97,enough cells in well,156,149
Nsg1 (neuron specific gene family member 1),-0.73,enough cells in well,171,89.2
Jkampl (JNK1/MAPK8 associated membrane protein like),,fewer than 50 cells per well; well left out of calls,223,25.1
"Fpr-rs3 (formyl peptide receptor, related sequence 3)",0.93,enough cells in well,297,199
"Cd3e (CD3 antigen, epsilon polypeptide)",1.61,enough cells in well,255,244
"Cd3e (CD3 antigen, epsilon polypeptide)",-0.71,enough cells in well,146,254
Or4f57 (olfactory receptor family 4 subfamily F member 57),-0.33,enough cells in well,157,110
Mamstr,-0.07,enough cells in well,170,145
Setd1b (SET domain containing 1B),-0.41,enough cells in well,132,232
Swt1 (SWT1 RNA endoribonuclease homolog (S. cerevisiae)),-1.43 (active),enough cells in well,120,39.7
Gata3 (GATA binding protein 3),-1.18,enough cells in well,165,133
Trim31 (tripartite motif-containing 31),-0.18,enough cells in well,195,193
S100a14 (S100 calcium binding protein A14),-0.23,enough cells in well,326,162
"Col4a6 (collagen, type IV, alpha 6)",-0.63,enough cells in well,204,154

Copied from above (2 entries):
gene,Tnf reporter robust z-score,fewer than 50 cells in well,"Tnf reporter intensity, replicate 1","Tnf reporter intensity, replicate 2"
4930515G01Rik (RIKEN cDNA 4930515G01 gene),-0.93,enough cells in well,111,44.8
Vps13b (vacuolar protein sorting 13B),2.45,enough cells in well,173,347
